Laboratory results published in patent US5466682A, “Acylamino-alkyliden-hydroxy-bisphosphonic acids esters and salts thereof, wherein the acyl group is derived from an acid having antiinflammatory activity” (Istituto Gentili S.p.A., priority 1991, dated 1995).

Tested on: bone calcium loss induced by retinoid
Assay: Bone calcium loss induced by retinoid in thyroparathyroidectomized rat (plasma Ca)
Assay type: in vivo, rat (male)
Conditions: thyroparathyroidectomized rats, retinoid s.c. 3 days, 24 hours after last administration
Procedure: Male rats weighing about […] are thyroparathyroidectomyzed under Nembutal anaesthesia. The animals are treated with thyroxine on alternate days during all the test. 7 Days after surgery, blood is withdrawn by means of intracardiac puncture and Ca is determined on plasma. The animals with a Ca plasma content higher than 2 mM are excluded from the test, the others are treated with the compounds under test and with retinoid which is administered subcutaneously for 3 consecutive days. 24 Hours after the last administration, animals are killed and blood is recovered to determine Ca again.
EFFECT OF BR--AB AND BR--AX D[…]
BONE CALCIUM LOSS INDUCED BY RETINOID IN RAT

Question: Which results are given for NCCCC(O)(P(=O)(O)O)P(=O)(O)O [AHBuBP, 4amino-1-hydroxybutylidene-1,1-diphosphonic acid, reference compound]?
Answer: Plasmatic Ca increase after retinoid adm. (controls 1.11 ± 0.03): 0.29 ± 0.2 mmol/lt; % inhibition (of plasmatic Ca increase after retinoid) (versus controls): 73.9%
